{"source": "the supplement of paper PMC11060735", "note": "Over roughly 1,800 compounds, “GFP- (p16Ink4a-) cell count relative to negative-control wells” has its median near 0.99; the lowest 2% begin near 0.5. The list shows a part of the results."}
{"test_system": "mouse p16Ink4a+/- lung fibroblasts (INKBRITE, bleomycin-injured)", "assay": "GFP- (p16Ink4a-) cell count relative to negative-control wells (fold of vehicle); higher = more p16Ink4a- cells surviving", "details": "1 µM; 3 days"}
{"smiles": "CN1C[C@@H]2c3ccccc3Oc3ccc(Cl)cc3[C@H]2C1", "note": "[Asenapine]", "GFP-": 0.985}
{"smiles": "O=C1C(O)=C([C@H]2CC[C@H](c3ccc(Cl)cc3)CC2)C(=O)c2ccccc21", "note": "[Atovaquone]", "GFP-": 0.997}
{"smiles": "OC[C@@H](O)[C@@H](O)CO", "note": "[_x000D_  Meso-Erythritol]", "GFP-": 0.974}
{"smiles": "O=C(/C=C/c1ccc(O)c(O)c1)O[C@@H]1C[C@](O)(C(=O)O)C[C@@H](O)[C@H]1O", "note": "[Chlorogenic Acid]", "GFP-": 1.01}
{"smiles": "Cc1cc(NC(=O)Nc2ccc(N(C)C)cc2)c2cc(F)cc(F)c2n1", "GFP-": 1.15}
{"smiles": "CCOC(=O)c1ccc(N2NC(=O)/C(=C/c3ccc([N+](=O)[O-])o3)C2=O)cc1", "GFP-": 0.95}
{"smiles": "CCC(=O)O[C@]1(C(=O)SCF)[C@H](C)C[C@H]2[C@@H]3C[C@H](F)C4=CC(=O)C=C[C@]4(C)[C@@]3(F)[C@@H](O)C[C@@]21C", "note": "[Fluticasone propionate]", "GFP-": 0.911}
{"smiles": "CN1CCC(NC(=O)c2cc(-c3c(O)cc(O)cc3Oc3ccc([N+](=O)[O-])cc3)on2)CC1", "GFP-": 1.03}
{"smiles": "Cc1ccc(C(=O)Nc2ccc(CN3CCN(C)CC3)c(C(F)(F)F)c2)cc1C#Cc1cnc2[nH]ncc2c1", "note": "[Olverembatinib]", "GFP-": 0.581}
{"smiles": "CN(C)C/C=C/C(=O)Nc1cc2c(Nc3ccc(F)c(Cl)c3)ncnc2cc1O[C@H]1CCOC1", "note": "[Afatinib]", "GFP-": 0.903}
{"smiles": "CCCC(C)NC(=O)c1ccc(Cl)c(Cl)c1", "note": "(stereo unspecified)", "GFP-": 1.14}
{"smiles": "CCCc1nc(C(C)(C)O)c(C(=O)OCc2oc(=O)oc2C)n1Cc1ccc(-c2ccccc2-c2nn[nH]n2)cc1", "note": "[Olmesartan Medoxomil]", "GFP-": 1.05}
{"smiles": "C[C@@H]1C(=O)O[C@H]2[C@@H](O)C34[C@H]5C[C@@H](C(C)(C)C)C36[C@@H](OC(=O)[C@@H]6O)O[C@@]4(C(=O)O5)[C@@]12O", "note": "(stereo partly specified) [Ginkgolide B]", "GFP-": 1.07}
{"smiles": "COC(=O)N1CCN(Cc2cccc(NC(=O)Nc3ccc(C)nc3)c2F)CC1", "note": "[Omecamtiv mecarbil]", "GFP-": 0.968}
{"smiles": "O=C(O)CCCCC(CCSCc1ccccc1)SCc1ccccc1", "note": "(stereo unspecified)", "GFP-": 1.04}
{"smiles": "O=C(NNc1nc2cc(F)ccc2n2cccc12)c1cnccn1", "GFP-": 0.693}
{"smiles": "CN(Cc1cnc2nc(N)nc(N)c2n1)c1ccc(C(=O)N[C@@H](CCC(=O)O)C(=O)O)cc1", "note": "[Methotrexate]", "GFP-": 1.13}
{"smiles": "CC(C)NC[C@H](O)COc1ccc(CCOCC2CC2)cc1", "note": "[Levobetaxolol]", "GFP-": 0.972}
{"smiles": "CC/C(=C(\\c1ccccc1)c1ccc(OCCN(C)C)cc1)c1ccccc1", "note": "[Tamoxifen]", "GFP-": 0.989}
{"smiles": "O=C(Nc1cccc(C(F)(F)F)c1)Nc1cc(S(=O)(=O)NC2CC2)ccc1-c1ccsc1", "GFP-": 1.05}
{"smiles": "CO/C(O)=C1\\C(C)=NC(C)=C(C(=O)OCC(C)C)C1c1ccccc1[N+](=O)[O-]", "note": "(stereo unspecified) [Nisoldipine]", "GFP-": 1.15}
